Results deposited as PubChem BioAssay AID652259 (Drosophila RNAi Screening Center, 2013).

Test: 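Identify new Wingless signalling regulators in fly cells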 (primary screen)
System: Drosophila clone 8 imaginal disc epithelial cells
Reagents: long dsRNA against Drosophila genes
Conditions: pathway stimulated by co-transfected Wingless expression plasmid
Measured: 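Dual luciferase reads per well after Wingless plasmid stimulation: reporter firefly light and Renilla control light; activity is firefly divided by Renilla, a ratio not deposited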
Direction: firefly reporter light: higher = more Wg reporter light, before normalisation; Renilla control light: higher = more transfected or surviving cells
Rule for the call: 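Strong candidates differ from their plate mean by at least two out of four per-plate statistical tests; weak candidates meet just one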
Meaning of the calls: active = candidate regulator (raises or lowers reporter); inactive = not a candidate
The screen tested about 22,000 reagents; shown is a random part of those with a known target gene and a result. Of all reagents, 233 (1.1%) were called active. 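Light values are raw, unnormalised plate reads; the ratio scores behind the reporter calls were not deposited.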 Unmarked entries are inactive. The record does not give: the amount of reagent, the time to read-out, the dose of the treatment.

With knock-down of Obp59a (Odorant-binding protein 59a) [DRSC04160], the record shows firefly reporter light, replicate 1 = 3043; firefly reporter light, replicate 2 = 6832; Renilla control light, replicate 1 = 840; Renilla control light, replicate 2 = 2706.
Silencing of CG17068 [DRSC20545] came out at: firefly reporter light, replicate 1 = 3536; firefly reporter light, replicate 2 = 11433; Renilla control light, replicate 1 = 1970; Renilla control light, replicate 2 = 4200.
Against CG1620 [DRSC06603], the values are firefly reporter light, replicate 1 = 14848; Renilla control light, replicate 1 = 4069.
With knock-down of p130CAS [DRSC07862] the results were firefly reporter light, replicate 1 = 2721; Renilla control light, replicate 1 = 1872.
p130CAS [DRSC08257] scored firefly reporter light, replicate 1 = 17794; Renilla control light, replicate 1 = 5649.
Against sowi (solwind) [DRSC12558] the deposit lists firefly reporter light, replicate 1 = 7548; Renilla control light, replicate 1 = 1780.
CG10104 [DRSC05964] gave firefly reporter light, replicate 1 = 8806; Renilla control light, replicate 1 = 2696.
Silencing of phr (photorepair) [DRSC07662] gave: firefly reporter light, replicate 1 = 1992; firefly reporter light, replicate 2 = 5517; Renilla control light, replicate 1 = 192; Renilla control light, replicate 2 = 2593.
After knock-down of CG14740 [DRSC14960], the record shows firefly reporter light, replicate 1 = 5781; Renilla control light, replicate 1 = 2119.

Not a retest: an excerpt of the list.
Obp59a (Odorant-binding protein 59a) [DRSC04160] | firefly reporter light, replicate 1 = 3043; firefly reporter light, replicate 2 = 6832; Renilla control light, replicate 1 = 840; Renilla control light, replicate 2 = 2706
CG17068 [DRSC20545] | firefly reporter light, replicate 1 = 3536; firefly reporter light, replicate 2 = 11433; Renilla control light, replicate 1 = 1970; Renilla control light, replicate 2 = 4200
CG1620 [DRSC06603] | firefly reporter light, replicate 1 = 14848; Renilla control light, replicate 1 = 4069
p130CAS [DRSC07862] | firefly reporter light, replicate 1 = 2721; Renilla control light, replicate 1 = 1872

Additional reagents follow.
CG18666 [DRSC02694] scored firefly reporter light, replicate 1 = 3229; firefly reporter light, replicate 2 = 6487; Renilla control light, replicate 1 = 977; Renilla control light, replicate 2 = 3275.
Depletion of Try29F (Trypsin 29F) [DRSC03466] resulted in: firefly reporter light, replicate 1 = 2988; firefly reporter light, replicate 2 = 9640; Renilla control light, replicate 1 = 1153; Renilla control light, replicate 2 = 4359.
For GNBP3 (Gram-negative bacteria binding protein 3) [DRSC11170], the entry reads firefly reporter light, replicate 1 = 887; firefly reporter light, replicate 2 = 8218; Renilla control light, replicate 1 = 915; Renilla control light, replicate 2 = 2944.
Ccp84Ab [DRSC12587] scored firefly reporter light, replicate 1 = 16081; Renilla control light, replicate 1 = 4011.
Against xmas [DRSC21306], the entry reads firefly reporter light, replicate 1 = 23637; Renilla control light, replicate 1 = 10827.
With knock-down of xmas [DRSC22178], the record shows firefly reporter light, replicate 1 = 5.11e5; firefly reporter light, replicate 2 = 5.86e5; Renilla control light, replicate 1 = 1.47e5; Renilla control light, replicate 2 = 1.54e5.
Knock-down of LManII (Lysosomal alpha-mannosidase II) [DRSC01986] came out at: firefly reporter light, replicate 1 = 7760; Renilla control light, replicate 1 = 2388.
knon (knotted onions) [DRSC07049] scored firefly reporter light, replicate 1 = 5801; Renilla control light, replicate 1 = 1979.
With knock-down of CG7974 [DRSC08607] the results were firefly reporter light, replicate 1 = 17417; Renilla control light, replicate 1 = 4114.
Knock-down of Ctf4 (Chromosome transmission fidelity 4) [DRSC06380] resulted in: firefly reporter light, replicate 1 = 10784; Renilla control light, replicate 1 = 3056.
Silencing of CG12498 [DRSC18635] resulted in: firefly reporter light, replicate 1 = 14320; Renilla control light, replicate 1 = 9156.
With knock-down of spz3 (spatzle 3) [DRSC02391], the screen gave firefly reporter light, replicate 1 = 3080; firefly reporter light, replicate 2 = 4562; Renilla control light, replicate 1 = 713; Renilla control light, replicate 2 = 2032.
With knock-down of spz3 (spatzle 3) [DRSC03008], the screen gave firefly reporter light, replicate 1 = 4160; firefly reporter light, replicate 2 = 7901; Renilla control light, replicate 1 = 966; Renilla control light, replicate 2 = 2442.
Diedel2 (Diedel 2) [DRSC13952] gave firefly reporter light, replicate 1 = 3236; Renilla control light, replicate 1 = 1872.
After knock-down of Cpr47Ef (Cuticular protein 47Ef) [DRSC06336], the record shows firefly reporter light, replicate 1 = 7184; Renilla control light, replicate 1 = 3783.
Silencing of Cpr47Ef (Cuticular protein 47Ef) [DRSC22450] gave: firefly reporter light, replicate 1 = 4.16e5; firefly reporter light, replicate 2 = 4.50e5; Renilla control light, replicate 1 = 1.39e5; Renilla control light, replicate 2 = 1.37e5.
